Library screen at single concentrations

Sequences of proteins named here, by UniProt entry; tags and fusion partners are left off. Residues count along the entry.
UniProt Q4DA54, 1-478: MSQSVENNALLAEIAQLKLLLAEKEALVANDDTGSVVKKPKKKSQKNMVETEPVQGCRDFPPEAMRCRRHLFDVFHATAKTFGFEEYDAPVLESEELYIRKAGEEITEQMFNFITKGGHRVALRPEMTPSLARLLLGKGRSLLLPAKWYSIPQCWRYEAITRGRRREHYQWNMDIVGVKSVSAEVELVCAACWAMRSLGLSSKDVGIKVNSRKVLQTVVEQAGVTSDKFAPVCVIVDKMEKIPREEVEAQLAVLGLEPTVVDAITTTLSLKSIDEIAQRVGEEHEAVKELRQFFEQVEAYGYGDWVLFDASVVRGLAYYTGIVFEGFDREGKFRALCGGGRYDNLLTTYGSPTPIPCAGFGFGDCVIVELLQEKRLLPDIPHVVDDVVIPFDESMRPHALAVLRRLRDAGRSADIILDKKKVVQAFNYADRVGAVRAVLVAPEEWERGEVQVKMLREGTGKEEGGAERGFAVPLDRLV
UniProt P9WNZ1, whole entry: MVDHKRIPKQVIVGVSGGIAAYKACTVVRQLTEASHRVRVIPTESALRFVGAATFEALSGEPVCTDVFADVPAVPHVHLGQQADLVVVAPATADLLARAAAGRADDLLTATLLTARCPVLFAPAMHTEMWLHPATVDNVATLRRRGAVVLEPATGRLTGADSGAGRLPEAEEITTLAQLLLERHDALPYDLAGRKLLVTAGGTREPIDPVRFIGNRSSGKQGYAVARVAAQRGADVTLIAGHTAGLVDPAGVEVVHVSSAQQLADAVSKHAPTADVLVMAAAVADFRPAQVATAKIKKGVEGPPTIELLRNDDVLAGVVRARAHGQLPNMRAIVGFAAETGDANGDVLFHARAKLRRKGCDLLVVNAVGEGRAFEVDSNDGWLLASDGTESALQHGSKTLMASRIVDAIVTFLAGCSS
UniProt P9WPC5, whole entry: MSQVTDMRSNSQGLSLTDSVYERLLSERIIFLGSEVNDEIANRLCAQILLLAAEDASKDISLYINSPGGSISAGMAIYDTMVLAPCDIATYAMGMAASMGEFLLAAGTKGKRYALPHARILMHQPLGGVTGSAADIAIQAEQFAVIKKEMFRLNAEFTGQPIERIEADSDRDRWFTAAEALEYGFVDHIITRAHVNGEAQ
UniProt P9WPC3, whole entry partner: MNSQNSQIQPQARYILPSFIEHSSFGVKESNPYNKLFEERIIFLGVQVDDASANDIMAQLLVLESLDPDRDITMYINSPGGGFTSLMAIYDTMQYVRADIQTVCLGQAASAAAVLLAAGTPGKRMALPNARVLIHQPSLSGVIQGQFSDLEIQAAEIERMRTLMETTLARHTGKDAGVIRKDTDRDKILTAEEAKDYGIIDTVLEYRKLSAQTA
UniProt Q8IDJ8, 1-583: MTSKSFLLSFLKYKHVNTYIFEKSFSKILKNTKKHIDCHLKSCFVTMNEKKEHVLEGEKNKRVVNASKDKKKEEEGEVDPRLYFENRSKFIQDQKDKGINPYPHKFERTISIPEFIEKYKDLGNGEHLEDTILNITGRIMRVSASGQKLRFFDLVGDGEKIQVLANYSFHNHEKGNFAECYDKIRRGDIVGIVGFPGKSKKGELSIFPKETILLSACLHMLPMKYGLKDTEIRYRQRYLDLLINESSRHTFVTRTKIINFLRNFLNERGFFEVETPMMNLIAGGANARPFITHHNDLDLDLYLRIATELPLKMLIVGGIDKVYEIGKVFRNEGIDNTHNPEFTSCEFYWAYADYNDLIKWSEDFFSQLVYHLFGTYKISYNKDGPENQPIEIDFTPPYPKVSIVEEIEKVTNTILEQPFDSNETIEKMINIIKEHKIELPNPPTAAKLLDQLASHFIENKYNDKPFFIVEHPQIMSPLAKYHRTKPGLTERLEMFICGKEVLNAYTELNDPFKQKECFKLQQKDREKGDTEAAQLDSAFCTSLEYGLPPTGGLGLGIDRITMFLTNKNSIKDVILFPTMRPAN

Leishmania in macrophages: 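Cell assay of Leishmania donovani living inside macrophages; the read-out is not stated. Compounds at 30 µM. Direction is inferred from retests: higher values go with stronger inhibition. Size under these conditions: about 69,000 compounds, about 1,000 of them at 50% or above in at least one test.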
TcHisRS: 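Histidine-tRNA ligase, Trypanosoma cruzi CL Brener (UniProt Q4DA54). Enzyme assay of histidyl-tRNA synthetase; the read-out is not stated. Compounds at 30 µM. Direction is inferred from retests: higher values go with stronger inhibition. Of about 69,000 compounds tested this way, about 31 (0.045%) reached 50% or more in at least one test.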
CoaBC: 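Enzyme assay of CoaBC with a phosphate dye (Biomol Green) read at 650 nm. Target: Coenzyme A biosynthesis protein CoaBC, Mycobacterium tuberculosis (UniProt P9WNZ1). Tested at 30 µM. Direction is inferred from only a few compounds that gave an IC50; most scored high, so higher reads as stronger inhibition. Most strong results did not repeat in a second test. Size under these conditions: about 67,000 compounds, about 40 of them at 50% or above in at least one test.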
ClpP1P2: 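ClpP1P2, Mycobacterium tuberculosis (UniProt P9WPC5 and UniProt P9WPC3). Protease assay of ClpP1P2, read by the AMC dye that it sets free. Concentration: 50 µM. Direction is inferred from only a few compounds that gave an IC50; most scored high, so higher reads as stronger inhibition. Most other retested compounds had strongly negative values. Of about 69,000 compounds tested this way, about 10 (0.015%) reached 50% or more in at least one test.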
PfKRS1: 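Enzyme assay of the cytosolic lysyl-tRNA synthetase in 384-well plates, read by luminescence. Target: Lysine-tRNA ligase, Plasmodium falciparum 3D7 (UniProt Q8IDJ8). Compounds at 30 µM. Higher reads as stronger inhibition, judged from the few compounds that gave an IC50. Size under these conditions: about 69,000 compounds, about 49 of them at 50% or above in at least one test.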

The filed quantity is “Percent Effect” (%).
The record does not define 0% and 100%; most values in the screen are far below 50% and negative numbers occur (in some assays of this library far below -100).
The compounds are a random part of those screened.
Two or more numbers in one place are separate tests of the same structure; such repeats can differ widely.
A dash means the value is not listed here; it may have been measured.

structure | Leishmania in macrophages | TcHisRS | CoaBC | ClpP1P2 | PfKRS1
CC(Cn1cccn1)NC(=O)Nc1nccs1 (stereo not drawn) | 11.08 | 3.053 | 1.928 | 16.85 | 4.811
Cc1ncc(C(=O)NCCNc2ncnc3sccc23)s1 | 20.47 | 7.831 | 2.805 | -10.83 | -1.092
O=S1(=O)CCC(N(Cc2nc(-c3ccccn3)no2)Cc2cccs2)C1 (stereo not drawn) | 15.31 | 6.936 | 3.448 | -26.88 | 0.628
COCC1CC2(CCN(Cc3cnn(C)c3)CC2)CN1C(C)C.O=C(O)C(F)(F)F.O=C(O)C(F)(F)F (stereo not drawn) | 25.13 | - | - | - | -
CNCc1ccc([C@@H]2CN(C(C)=O)C[C@H]2C(=O)N(C)C)cc1 | - | 6.513 | -4.785 | -6.501 | 0.4983
Cc1cc(C(=O)N[C@H](C)c2onc(C)c2C(=O)O)c(C)o1 | - | 5.473 | 0.1965 | -11.19 | 2.18
Cc1nc(C2CCCNC2)cc(N(C)CCc2ccccc2)n1 (stereo not drawn) | 66.58 | 1.02 | -0.1248 | 10.27 | 1.369
Cc1ccc(N2CCO[C@H]3CN(Cc4cccnc4)C[C@H]32)nn1 | - | 9.244 | 3.854 | 17.55 | 8.455
COc1ccc(CN2CCC3(CCCN(c4ncc(F)cn4)C3)C2)cc1 (stereo not drawn) | - | 5.882 | -24.14 | -6.516 | 1.888
COCC(=O)N1CCCn2c(CN3CCCCC3)nnc2C1 | - | 5.785 | 3.656 | 6.795 | -4.082
COC(=O)[C@@H]1CN(C(=O)c2cscn2)C[C@H]1c1ccc(OC)cc1 | -5.296 | 7.605 | 1.854 | 2.548 | 1.048
CN(Cc1ccco1)C(=O)CN1CCCC1c1cccs1 (stereo not drawn) | 3.316 | 0.5128 | -2.981 | -12.34 | -0.9596
[H][C@]12CC[C@@]3(N=C(c4ccccc4)NC3=O)[C@@]1([H])CN(CC1CCOCC1)C2 | -3.51 | - | - | - | -
O=C(O)C(F)(F)F.O=C(O)C(F)(F)F.O=C(O)C(F)(F)F.[H][C@]12COC[C@H](N3CCN(C)CC3)[C@@]1([H])CN(Cc1cc(C)cc(C)c1)C2 | 20.69 | - | - | - | -
Cc1ccccc1CC1(C(=O)O)CCCN(c2ncccn2)C1 (stereo not drawn) | 19.04 | -1.288 | 9.211 | -3.623 | 0.4346
CC(CNC(=O)N1CCSCC1)Cc1cccs1 (stereo not drawn) | 33.92 | 2.674 | -2.692 | -6.205 | 6.659
CCN1CCN(C(=O)CCC2CCN(C(C)CSC)CC2)CC1 (stereo not drawn) | 19.27 | 7.317 | 1.129 | -22.16 | 4.582
COc1ccc(CNC(=O)Nc2cccnc2N2CCCC2)cc1 | -15.95 | 1.453 | -0.8149 | -15.7 | 0.7411
COc1ccccc1N1CCN(CC[C@H](O)c2ccccc2)CC1=O | 10.69 | 6.806 | 2.263 | -0.1342 | 1.454
[H][C@@]12CS(=O)(=O)C[C@]1([H])N(C(=O)c1snnc1C)CCN2C(=O)C1CCC1 | 13.25 | - | - | - | -
CN1C(=O)CC(c2cnn(C)c2)C12CCN(C(=O)c1ccncc1)CC2 (stereo not drawn) | - | 26.05 | -12.78 | 7.209 | 8.62
Nc1ccc(CC2CCCN(Cc3c[nH]cn3)C2)nn1 (stereo not drawn) | 24.95 | 5.385 | 8.551 | -10.55 | 1.322
Cc1cnc(N2CCN(C)c3ncccc3C2)nc1 | - | 5.063 | - | 1.582 | 16.2
COc1ccccc1NCC(=O)NCc1ccc(-c2ccn[nH]2)cc1 | 15.38 | 3.947 | - | -3.301 | 0.646
O=C(O)C(F)(F)F.[H][C@@]12CCN(CC3CCCCC3)C[C@]1(C(=O)N1CCOCC1)CCO2 | -43.91 | - | - | - | -
CC(C)(O)CCc1ccc(C(=O)NCCC2CCCOC2)cc1 (stereo not drawn) | 31.48 | -1.01 | 0.7673 | -12.57 | 7.123
COc1ccc(CCCN2C(=O)O[C@@H]3CN(C4CCOCC4)C[C@@H]32)cc1 | - | 4.386 | 2.343 | -12.88 | 1.901
O=C(c1ccc(-n2cnnc2)cc1)N1CCCC(n2ccnc2)C1 (stereo not drawn) | 17.96 | 1.744 | 3.509 | -9.529 | 0.7558
COc1ccc(C)cc1CN1CCC(c2cc3ncccc3cn2)CC1 | - | 66.15 | 17.34 | -17.73 | -0.4649
CC(C)(C)n1nc(C(=O)NC2CCN(CC(N)=O)CC2)cc1C1CC1 | 14 | 9 | -1.695 | -11.22 | -0.6658
[H][C@@]12CS(=O)(=O)C[C@]1([H])NCCN2c1ccnc(N(C)Cc2nccs2)n1 | 21.21 | - | - | - | -
O=C(NCc1ccc(OCC2CC2)nc1)C1COc2ccccc2O1 (stereo not drawn) | 31.52 | 2.762 | 2.93 | 1.836 | -1.141
O=C(c1ccnnc1)N1C[C@@H]2OCCN(CCN3CCCC3)[C@@H]2C1 | - | 3.867 | -0.2571 | -3.894 | 1.083
CN(C)[C@@H]1CCN(C(=O)Cc2cccs2)[C@H]1Cc1ccncc1.O=C(O)C(F)(F)F.O=C(O)C(F)(F)F | -13.65 | - | - | - | -
c1ccc(Cc2nnc(CN3CCCC(Cn4cncn4)C3)o2)cc1 (stereo not drawn) | -8.444 | 4.985 | 4.474 | -15.39 | 0.4618
COc1ccc(S(=O)(=O)C(F)(F)F)cc1NC(=O)CSCC#N | 25.41 | 4.433 | 4.747 | 3.34 | 5.755
c1cc(-c2nc3c(c(NCCc4c[nH]cn4)n2)CCNCC3)ccn1 | -15.87 | 0 | -57.01 | -0.2265 | -2.042
Cc1ccc(CN(Cc2nc3c(cnn3C)c(=O)[nH]2)C2CC2)o1 | -14.13 | 1.149 | 1.161 | 5.907 | 0.4244
F[C@@H]1CN(CC2CC2)C[C@@H]1OCc1nc2ncccc2[nH]1 | 8.611 | 4.348 | -2.428 | -7.3 | 4.111
Cc1cc(C)n(CC(=O)N2CCC(NS(=O)(=O)c3ccccc3)CC2)n1 | 9.696 | 2.662 | -2.128 | 3.589 | -2.704
O=S(=O)(Cc1c(F)cccc1Cl)Cc1nnnn1C1CC1 | -17.01 | 11 | 1.453 | -13.53 | -0.1051
Cc1ccc(O)c(CNC2CCc3nc(C)nn3C2)n1 (stereo not drawn) | -5.773 | 8.543 | 0.1203 | 13.69 | 7.361
O=C(O)[C@H]1OCC(=O)N(Cc2cccc(F)c2)[C@@H]1c1ccc(Cl)cc1 | 13.66 | 3.448 | 0.9709 | -22.07 | 0.7078
CC(C)n1ccc2ccc(C(=O)NC3CN4CCC3CC4)cc21 (stereo not drawn) | 11.12 | -0.5848 | 0.7576 | -11.1 | 3.928
Cc1cc(C(F)(F)F)c2c(C3CCCN(C(=O)C4CC4)C3)noc2n1 (stereo not drawn) | 4.022 | 2.247 | 0.6196 | -16.6 | 0.1902
CCCC(=O)N1CCN(CCN(C)C)c2nc(C)ccc2C1 | - | 4.082 | 0.8653 | -9.469 | 2.095
CCc1nnc(SC2CCCN(c3cnn(C)c3)C2=O)n1C (stereo not drawn) | 20.07 and -19.28 | 6.024 | 1.272 | -8.714 | 5.801
CCn1cnnc1CNC(=O)N1CCN(c2nccs2)CC1 | 2.339 | 2.874 | 7.355 | 14.01 | -0.4109
CCS(=O)(=O)N1CCO[C@H]2[C@H](OCC3CCCC3)CC[C@@H]21 | - | 4.865 | 1.904 | -8.432 | 4.366
CN1CCN(C2CCN(Cc3nnc(C(C)(C)C)o3)CC2)C1=O | 6.935 | 2.624 | 5.222 | -23.36 | -1.68
Cc1ccc2c(c1)C1(CCNCC1)CC2OCC1CC1 (stereo not drawn) | 0.3672 and 25.45 | 2.151 | -38.11 | -12.79 | 2.423
Cc1noc(C)c1C(=O)N1CCC(Nc2cccnn2)CC1 | -6.766 | 7.647 | 3.836 | -26.86 | -0.04003
Cc1ccoc1C(=O)N1CC[C@H]2[C@H](C[C@@H](CN3CCCC3)N2C)C1 | - | 5.028 | 4.242 | -14.12 | 1.949
Cc1ccc(C(=O)NCCCN(C(C)C)S(C)(=O)=O)c(=O)[nH]1 | 6.102 | 0 | -2.621 | 5.443 | 6.393
CCOCCCNC(=O)CN(c1cc(C)cc(C)c1)S(C)(=O)=O | 4.923 | 1.775 | -9.211 | 9.917 | 9.314

The first 3 entries again:

structure,Leishmania in macrophages,TcHisRS,CoaBC,ClpP1P2,PfKRS1
CC(Cn1cccn1)NC(=O)Nc1nccs1 (stereo not drawn),11.08,3.053,1.928,16.85,4.811
Cc1ncc(C(=O)NCCNc2ncnc3sccc23)s1,20.47,7.831,2.805,-10.83,-1.092
O=S1(=O)CCC(N(Cc2nc(-c3ccccn3)no2)Cc2cccs2)C1 (stereo not drawn),15.31,6.936,3.448,-26.88,0.628

Source: ChEMBL document CHEMBL3988442, “University of Dundee, Small-Polar-MMV Screening Library” (2021).